Assay results taken from article doi:10.1101/2024.09.10.612038.
Results are given in words; binding and its absence hold for the method and conditions named. Some binding calls cover weakened binding; strength is not graded here.

The chains behind the UniProt entries cited, without tags or fusion partners.
UniProt A5YKK6, whole entry: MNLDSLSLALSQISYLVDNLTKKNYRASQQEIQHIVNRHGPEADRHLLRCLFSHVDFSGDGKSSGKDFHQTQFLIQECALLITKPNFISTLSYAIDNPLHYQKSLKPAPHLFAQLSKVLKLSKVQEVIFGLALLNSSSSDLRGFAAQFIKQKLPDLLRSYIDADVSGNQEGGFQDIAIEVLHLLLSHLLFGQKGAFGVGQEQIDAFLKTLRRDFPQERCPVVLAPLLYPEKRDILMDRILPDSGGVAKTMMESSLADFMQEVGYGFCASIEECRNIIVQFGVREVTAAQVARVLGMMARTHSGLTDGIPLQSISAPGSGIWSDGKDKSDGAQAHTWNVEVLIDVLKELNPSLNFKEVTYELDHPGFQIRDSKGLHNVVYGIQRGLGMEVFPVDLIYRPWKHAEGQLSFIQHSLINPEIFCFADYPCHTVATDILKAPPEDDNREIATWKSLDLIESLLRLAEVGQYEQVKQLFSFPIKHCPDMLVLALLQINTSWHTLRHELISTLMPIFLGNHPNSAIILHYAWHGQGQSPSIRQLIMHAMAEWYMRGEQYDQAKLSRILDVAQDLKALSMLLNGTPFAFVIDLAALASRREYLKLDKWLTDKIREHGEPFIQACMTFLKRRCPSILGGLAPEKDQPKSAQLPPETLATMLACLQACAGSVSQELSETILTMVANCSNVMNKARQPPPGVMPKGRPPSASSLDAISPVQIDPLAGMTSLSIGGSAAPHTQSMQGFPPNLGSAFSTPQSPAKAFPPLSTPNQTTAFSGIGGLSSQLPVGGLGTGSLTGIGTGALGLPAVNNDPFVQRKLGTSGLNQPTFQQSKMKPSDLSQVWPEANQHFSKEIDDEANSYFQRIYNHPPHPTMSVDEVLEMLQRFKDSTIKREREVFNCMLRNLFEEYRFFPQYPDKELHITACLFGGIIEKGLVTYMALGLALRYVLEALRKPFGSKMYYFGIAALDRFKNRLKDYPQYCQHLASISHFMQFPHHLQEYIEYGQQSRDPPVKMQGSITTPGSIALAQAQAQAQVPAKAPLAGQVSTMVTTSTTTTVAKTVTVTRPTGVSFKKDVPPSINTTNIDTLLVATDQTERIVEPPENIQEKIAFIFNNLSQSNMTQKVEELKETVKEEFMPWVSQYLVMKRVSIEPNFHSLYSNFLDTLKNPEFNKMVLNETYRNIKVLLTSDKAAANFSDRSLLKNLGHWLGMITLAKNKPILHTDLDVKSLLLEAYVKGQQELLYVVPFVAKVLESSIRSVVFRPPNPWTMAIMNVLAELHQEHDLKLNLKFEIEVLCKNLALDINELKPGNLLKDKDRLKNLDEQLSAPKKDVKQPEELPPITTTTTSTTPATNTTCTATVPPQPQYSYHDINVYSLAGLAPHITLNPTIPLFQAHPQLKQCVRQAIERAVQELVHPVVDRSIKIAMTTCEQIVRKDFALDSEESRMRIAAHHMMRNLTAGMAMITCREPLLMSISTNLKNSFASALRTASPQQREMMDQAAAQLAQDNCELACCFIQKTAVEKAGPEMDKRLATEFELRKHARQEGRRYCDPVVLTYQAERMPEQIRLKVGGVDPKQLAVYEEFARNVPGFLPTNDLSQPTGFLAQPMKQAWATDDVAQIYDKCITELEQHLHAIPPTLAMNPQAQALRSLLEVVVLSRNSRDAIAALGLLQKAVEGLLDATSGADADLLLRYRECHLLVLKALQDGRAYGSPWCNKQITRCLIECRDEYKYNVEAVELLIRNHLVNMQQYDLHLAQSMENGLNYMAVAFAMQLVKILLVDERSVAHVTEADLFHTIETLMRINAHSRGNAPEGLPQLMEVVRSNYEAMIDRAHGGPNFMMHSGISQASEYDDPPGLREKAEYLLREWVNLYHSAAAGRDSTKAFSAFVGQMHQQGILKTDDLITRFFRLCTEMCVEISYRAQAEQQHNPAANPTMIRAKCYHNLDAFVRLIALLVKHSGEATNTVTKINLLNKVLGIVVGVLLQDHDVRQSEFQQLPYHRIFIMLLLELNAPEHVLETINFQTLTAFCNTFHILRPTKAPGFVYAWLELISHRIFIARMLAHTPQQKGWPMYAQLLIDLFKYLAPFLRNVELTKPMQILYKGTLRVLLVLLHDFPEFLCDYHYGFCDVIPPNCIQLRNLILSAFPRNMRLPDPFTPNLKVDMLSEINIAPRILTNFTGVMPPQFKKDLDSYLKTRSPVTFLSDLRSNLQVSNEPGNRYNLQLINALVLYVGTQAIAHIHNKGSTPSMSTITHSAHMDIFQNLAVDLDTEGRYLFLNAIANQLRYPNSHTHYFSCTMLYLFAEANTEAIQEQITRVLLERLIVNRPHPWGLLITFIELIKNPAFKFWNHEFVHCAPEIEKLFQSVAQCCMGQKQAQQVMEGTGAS
UniProt Q9NZN8, whole entry: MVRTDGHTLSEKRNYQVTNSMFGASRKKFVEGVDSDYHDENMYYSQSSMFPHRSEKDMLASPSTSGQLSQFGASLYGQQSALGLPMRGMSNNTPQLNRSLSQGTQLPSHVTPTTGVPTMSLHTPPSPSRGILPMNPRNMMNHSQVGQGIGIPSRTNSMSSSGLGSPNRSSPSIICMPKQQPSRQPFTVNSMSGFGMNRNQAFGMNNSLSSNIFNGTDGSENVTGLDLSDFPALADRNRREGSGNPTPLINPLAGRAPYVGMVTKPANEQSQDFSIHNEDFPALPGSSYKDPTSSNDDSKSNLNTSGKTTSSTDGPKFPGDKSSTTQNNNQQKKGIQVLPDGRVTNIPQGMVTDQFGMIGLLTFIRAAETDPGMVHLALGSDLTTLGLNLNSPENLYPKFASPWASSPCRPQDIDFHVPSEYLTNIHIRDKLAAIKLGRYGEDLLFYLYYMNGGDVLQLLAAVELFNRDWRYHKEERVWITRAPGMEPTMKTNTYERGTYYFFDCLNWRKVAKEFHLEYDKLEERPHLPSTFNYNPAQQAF
UniProt Q92600, whole entry: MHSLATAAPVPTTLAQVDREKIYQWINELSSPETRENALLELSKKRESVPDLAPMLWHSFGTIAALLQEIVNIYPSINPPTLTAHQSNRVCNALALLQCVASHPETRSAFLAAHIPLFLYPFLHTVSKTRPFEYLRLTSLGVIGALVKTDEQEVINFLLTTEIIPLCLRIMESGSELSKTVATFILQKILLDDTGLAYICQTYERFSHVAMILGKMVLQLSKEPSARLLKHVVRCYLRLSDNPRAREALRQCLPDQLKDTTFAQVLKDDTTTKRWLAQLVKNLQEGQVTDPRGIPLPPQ
UniProt O75175, whole entry: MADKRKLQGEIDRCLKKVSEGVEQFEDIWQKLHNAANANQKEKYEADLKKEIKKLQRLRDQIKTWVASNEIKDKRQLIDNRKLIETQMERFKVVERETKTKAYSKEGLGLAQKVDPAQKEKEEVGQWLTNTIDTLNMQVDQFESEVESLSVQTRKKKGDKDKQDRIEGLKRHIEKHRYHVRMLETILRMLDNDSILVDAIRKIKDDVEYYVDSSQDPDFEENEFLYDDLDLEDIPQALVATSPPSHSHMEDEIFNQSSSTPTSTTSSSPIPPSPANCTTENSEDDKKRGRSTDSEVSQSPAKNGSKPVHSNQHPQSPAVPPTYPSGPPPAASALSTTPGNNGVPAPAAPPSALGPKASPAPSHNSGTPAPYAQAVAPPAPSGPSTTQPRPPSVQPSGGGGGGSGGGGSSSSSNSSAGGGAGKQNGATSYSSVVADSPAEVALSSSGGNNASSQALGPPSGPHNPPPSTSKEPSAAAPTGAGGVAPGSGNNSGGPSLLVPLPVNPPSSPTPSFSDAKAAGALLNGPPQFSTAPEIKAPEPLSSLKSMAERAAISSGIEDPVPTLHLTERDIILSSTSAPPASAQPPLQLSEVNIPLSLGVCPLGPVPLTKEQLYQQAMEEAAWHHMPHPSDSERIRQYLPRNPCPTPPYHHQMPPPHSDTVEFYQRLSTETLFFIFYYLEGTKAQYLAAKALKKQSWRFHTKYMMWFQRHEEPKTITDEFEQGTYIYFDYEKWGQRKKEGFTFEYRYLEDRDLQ

What was measured:
CNOT1^AID (human) = CNOT1^AID (human) (UniProt A5YKK6); test: SEC
[1] = molecular target: CNOT2 (human (endogenous in DLD-1)) (UniProt Q9NZN8); test: SEC

Row | binding (CNOT1^AID (human)) | binding [1] | Substance
1 | binds |  | CNOT2 (from UniProt Q9NZN8 1-540)
2 | binds |  | CNOT9 (from UniProt Q92600 1-299)
3 |  | binds | CNOT3 (from UniProt O75175 1-753)
